{"source": "patent US20250092088A1", "about": "(CHUBU UNIVERSITY EDUCATIONAL FOUNDATION, priority 2022, published 2025)", "assay": "Fmoc solid-phase peptide synthesis; Fmoc-AA-SNp (p-nitrophenyl thioester)", "conditions": "whole synthesis"}
{"substance": "H-Thr(t-Bu)-Lys(Boc)-Pro-Val-Lys(Boc)-Pro-Lys(Boc)-Lys(Boc)-Val-Ala-O-TAG2", "values": [{"measurement": "isolated yield", "value": 78, "unit": "%"}]}
